PubChem BioAssay AID652243 – Drosophila RNAi Screening Center, 2013
The screen tested about 24,000 reagents; below is a random part of those that have a named target and a result. Of all reagents, 246 (1%) are marked active. 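Plates not normalised; calls are printed but the firefly/Renilla ratio behind them is not deposited; fold cut for lowering reported inconsistently.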 Raw values vary from plate to plate and are shown uncorrected. A number with no mark means an inactive call. A plus sign joins genes that one reagent is predicted to hit. Not given: the amount of reagent.

Purpose: 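Knock-downs that decrease or increase androgen receptor reporter signal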 (primary screen)
Cells: Drosophila S2R+ cells
Reagents: long dsRNA against Drosophila genes
Duration: 72 h (48 h, then 24 h hormone)
Conditions: synthetic androgen R1881 at 10 nM for 24 h
Read-out: 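Firefly light from an androgen-responsive reporter and Renilla control light per well, raw and unnormalised, for each of two replicates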
Scale: firefly reporter light: higher = more light from androgen-responsive reporter; Renilla control light: higher = more constitutive control signal (cell number, transfection)
Call rule: 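Across duplicate plates, a knock-down whose log firefly/Renilla ratio shifted a set fold down or up from the GFP/LacZ control mean was a hit; the downward cut appears as both 1.5 and 3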
Meaning of the calls: active = hit: reporter lowered or raised; inactive = no hit

The opening 3 entries as a preview:
| target | dsRNA | firefly reporter light, replicate 1 | firefly reporter light, replicate 2 | Renilla control light, replicate 1 | Renilla control light, replicate 2 |
| --- | --- | --- | --- | --- | --- |
| mtsh | DRSC03070 | 1.74e5 | 1.90e5 | 1.33e6 | 1.11e6 |
| grk | DRSC03540 | 5.31e5 | 7.97e5 | 1.97e6 | 1.80e6 |
| abo | DRSC02926 | 2.32e5 | 2.09e5 | 1.54e6 | 1.67e6 |

The list itself, from the first entry:
| target | dsRNA | firefly reporter light, replicate 1 | firefly reporter light, replicate 2 | Renilla control light, replicate 1 | Renilla control light, replicate 2 |
| --- | --- | --- | --- | --- | --- |
| mtsh | DRSC03070 | 1.74e5 | 1.90e5 | 1.33e6 | 1.11e6 |
| grk | DRSC03540 | 5.31e5 | 7.97e5 | 1.97e6 | 1.80e6 |
| abo | DRSC02926 | 2.32e5 | 2.09e5 | 1.54e6 | 1.67e6 |
| Chpf | DRSC19491 | 4.11e5 | 4.35e5 | 2.94e6 | 2.17e6 |
| Chpf | DRSC19893 | 1.43e5 | 1.60e5 | 1.04e6 | 8.41e5 |
| Zir | DRSC00307 | 1.35e6 | 1.48e6 | 5.19e6 | 3.06e6 |
| CG5292 | DRSC15763 | 1.18e5 | 1.35e5 | 2.51e6 | 2.83e6 |
| CG5292 | DRSC26304 | 3.14e5 | 3.19e5 | 6.63e5 | 6.95e5 |
| Arms | DRSC03856 | 6.77e5 | 6.94e5 | 1.67e6 | 1.27e6 |
| Arms | DRSC03857 | 1.39e5 | 1.73e5 | 6.13e5 | 4.41e5 |
| Arms | DRSC04052 | 1.26e6 | 1.05e6 | 3.00e6 | 2.84e6 |
| Arms | DRSC04256 | 1.77e5 | 2.07e5 | 8.45e5 | 5.72e5 |
| Arms | DRSC28371 | 3.76e5 | 7.00e5 | 9.59e5 | 1.54e6 |
| aru | DRSC00802 | 1.23e5 | 1.32e5 | 1.12e6 | 1.35e6 |
| aru | DRSC22019 | 8.86e5 | 8.54e5 | 3.97e5 | 4.81e5 |
| CG9067 | DRSC07328 | 3.02e5 | 2.43e5 | 2.36e6 | 1.70e6 |
| Uvrag | DRSC02932 | 7.45e5 | 1.00e6 | 2.25e6 | 2.39e6 |
| CG14118 | DRSC10122 | 1.71e5 | 1.44e5 | 2.34e6 | 1.24e6 |
| CG9130 + CG9133 | DRSC08624 | 5.81e5 | 5.46e5 | 2.49e6 | 2.61e6 |
| CG9130 + CG9133 | DRSC08625 | 6.12e5 | 5.16e5 | 9.83e5 | 1.14e6 |
| CG9130 + CG9133 | DRSC22010 | 8.21e5 | 9.97e5 | 1.34e6 | 9.67e5 |
| CG9130 + CG9133 | DRSC29697 | 6.42e5 | 4.78e5 | 1.52e6 | 1.58e6 |
| CG42585 + CG31835 | DRSC28807 | 6.13e5 | 5.84e5 | 1.37e6 | 1.34e6 |
| CG2519 | DRSC12312 | 18585 | 38815 | 1.90e5 | 2.64e5 |
